{"source": "PubChem BioAssay AID2685", "about": "(National Center for Advancing Translational Sciences (NCATS), 2010)", "note": "Out of some 320,000 compounds screened, about 2,100 (0.66%) were called active. The shares of active, inactive and inconclusive entries below differ from those in the screen. Calls come from the whole dose curve; as a rule, active = well fitted inhibition curve with a large enough effect in the signal ratio, with a control signal flat (not every such curve was filed as active); inconclusive = small, poorly fitted or top-dose-only effect, or effect the other way, or a change in a side signal; inactive = flat fitted curve, though single readings scatter; the % refers to the signal ratio. Potencies beside an inconclusive call are fits to weak or partial responses and may not hold up. % is set by controls: 0 for no effect and ±100 for the full control effect; potency is the fitted concentration of half-maximal effect."}
{"test": "qHTS Assay for Lipid Storage Modulators in Drosophila S3 Cells", "conditions": "BODIPY lipid droplet fluorescence, 18-24 h, cells fed with added oleic acid; lipid storage change, negative = inhibition: at 46.1 µM (top of the series) unless noted", "method_in_brief": "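Drosophila S3 cells loaded with oleic acid (400 uM, as added) and compounds at several concentrations; lipid droplets imaged by 488-nm laser-scanning cytometry, 500–530 nm intensity and object ratio to cell channel. Percent activity normalized to 20 uM Triacsin C.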"}
{"smiles": "N/C(CCN1CCCCC1)=N/O", "lipid storage change, negative = inhibition": "inconclusive: -13.7%"}
{"smiles": "Cc1cc2c(c(=O)o1)C(c1ccc([N+](=O)[O-])o1)C(C#N)=C(N)O2", "note": "(configuration not stated)", "lipid storage change, negative = inhibition": "inconclusive: 34.7%"}
{"smiles": "CCOc1ccccc1C(=O)NCc1ccc2c(c1)OCO2", "Potency": "inconclusive: 0.0291 µM [activator, full curve, poor fit]"}
{"smiles": "COc1ccc(C(=O)Oc2c(C)occc2=O)cc1OC", "Potency": "inconclusive: 18.4 µM [activator, single point]"}
{"smiles": "COc1ccc(C2NN=C(c3ccc(C)cc3)S2)cc1", "note": "(configuration not stated)", "lipid storage change, negative = inhibition": "inactive"}
{"smiles": "Cc1ccc2c(Cl)c(C(=O)Nc3cccnc3)sc2c1", "lipid storage change, negative = inhibition": "inconclusive: -7.13%"}
{"smiles": "COc1ccccc1NC(=O)CSc1nnc(COc2ccc(Cl)cc2)n1Cc1ccco1", "Potency": "inconclusive: 8.2 µM [activator, partial curve, poor fit]"}
{"smiles": "Cc1ccc(CC(CC(=O)NCCc2ccc3c(c2)OCO3)C(=O)O)cc1", "note": "(configuration not stated)", "lipid storage change, negative = inhibition": "inactive"}
{"smiles": "CCOC(=O)CSC1=C(C#N)C(c2sccc2C)C(C(C)=O)=C(C)N1", "note": "(configuration not stated)", "lipid storage change, negative = inhibition": "inconclusive: -6.8%"}
{"smiles": "COCCCNC(=O)c1ccc(Cn2c(=O)c3ccccc3n(Cc3cc(C)ccc3C)c2=O)cc1", "Potency": "inconclusive: 3.66 µM [activator, single point]"}
{"smiles": "CCCCCCC#Cc1ccc2c(c1)COc1c3ccccc3nn1-2", "lipid storage change, negative = inhibition": "inconclusive: 17.7%"}
{"smiles": "Cc1ccc(S(=O)(=O)N2CCC(C)CC2)cc1C(=O)NCc1ccccn1", "lipid storage change, negative = inhibition": "inconclusive: 174%"}
{"smiles": "CCOC(=O)C(=O)Nc1ccccc1C#N", "lipid storage change, negative = inhibition": "inconclusive: 0.246%"}
{"smiles": "CN1CCN(c2ccc(NC(=S)NC(=O)c3cccc4c(Br)cccc34)cc2)CC1", "Potency": "inconclusive: 0.326 µM [activator, full curve]"}
{"smiles": "CC1CCC2C(=O)N(c3cccc(C(=O)Nc4ccc(F)cc4)c3)C(=O)C2C1", "note": "(configuration not stated)", "Potency": "inconclusive: 29.1 µM [cytotoxic, single point]"}
{"smiles": "CCc1ccc(/C=C2/SC(=S)N(CC(=O)Nc3nc4ccccc4s3)C2=O)cc1", "lipid storage change, negative = inhibition": "inconclusive: 15.7%"}
{"smiles": "CN(CC(=O)Nc1ccc(Cl)c(C(F)(F)F)c1)C(=O)c1ccc2c(c1)OCCO2", "lipid storage change, negative = inhibition": "inconclusive"}
{"smiles": "O=C(/C=C/c1c(Cl)nc2ccccn12)Nc1ccc(F)cc1", "lipid storage change, negative = inhibition": "inconclusive: -5.98%"}
{"smiles": "O=C(NCCN1CCOCC1)c1cccc(S(=O)(=O)Nc2cc(Cl)ccc2Cl)c1", "lipid storage change, negative = inhibition": "inconclusive"}
{"smiles": "CC(C)(C)c1ccc(OCC(=O)NN2Cc3ccccc3C2=N)cc1", "lipid storage change, negative = inhibition": "inconclusive: 13.7%"}
{"smiles": "Cc1cc(C)n(-c2ccc(N3CCOCC3)nn2)n1", "lipid storage change, negative = inhibition": "inconclusive: 39.7%"}
{"smiles": "Cc1ccc2c(c1)N(CC(=O)NC(C)CCc1ccccc1)C(=O)c1cccnc1O2", "note": "(configuration not stated)", "Potency": "inconclusive: 0.116 µM [activator, full curve]"}
{"smiles": "Cc1cc(N=Nc2ccc(Cl)cc2)cc(CN2CCCC2)c1O", "Potency": "inconclusive: 16.4 µM [cytotoxic, partial curve]"}
{"smiles": "CC(=O)Nc1nc2ccccc2n1Cc1ccccc1", "lipid storage change, negative = inhibition": "inconclusive: -17.3%"}
{"smiles": "Cc1nn(Cc2ccccc2)c(C)c1NC(=O)CCCn1nc([N+](=O)[O-])cc1C", "Potency": "inconclusive: 0.103 µM [activator, full curve, poor fit]"}
{"smiles": "COc1ccc(S(N)(=O)=O)cc1C(=O)OCC(=O)N1CC(=O)Nc2ccccc21", "lipid storage change, negative = inhibition": "inconclusive"}
{"smiles": "O=C(N/N=C/c1ccco1)C1CC(=O)N(c2ccccc2)C1", "note": "(configuration not stated)", "Potency": "inconclusive: 1.3 µM [falling, full curve, poor fit]"}
{"smiles": "Clc1ccc(C2NCCc3sccc32)cc1", "note": "(configuration not stated)", "lipid storage change, negative = inhibition": "inconclusive: -13.7%"}
{"smiles": "O=C(Cc1ccccc1)N1CCNCC1", "lipid storage change, negative = inhibition": "inconclusive: 13.5%"}
{"smiles": "Fc1ccccc1COc1ccc(Br)cc1CNCc1ccncc1", "lipid storage change, negative = inhibition": "inconclusive: -1.83%"}
{"smiles": "CCCCS(=O)c1c(O)c2ccccc2[nH]c1=O", "note": "(configuration not stated)", "lipid storage change, negative = inhibition": "inconclusive: 10.3%"}
{"smiles": "Cc1cc(NC(=O)COc2coc(CN3CCN(c4ccccc4F)CC3)cc2=O)no1", "Potency": "inconclusive: 0.146 µM [activator, full curve, poor fit]"}
{"smiles": "COC(=O)C(Cc1ccccc1)NC(=O)CNC(=O)c1ccccc1OC", "note": "(configuration not stated)", "lipid storage change, negative = inhibition": "inconclusive: 31.2%"}
{"smiles": "CCn1c(-c2ccc[nH]c2=O)nc2ccccc21", "lipid storage change, negative = inhibition": "inconclusive: 17.1%"}
{"smiles": "CCOc1ccc(C2c3c(oc4cc(C)c(C)cc4c3=O)C(=O)N2CCCN(C)C)cc1OC", "note": "(configuration not stated)", "lipid storage change, negative = inhibition": "inconclusive: 63% [activator]"}
{"smiles": "Cc1cc(C)n(-c2nc(NC(C)C)nc(NC(C)C)n2)n1", "lipid storage change, negative = inhibition": "inconclusive: 18.7%"}
{"smiles": "FC(F)(F)c1ccc(CN2CCN(Cc3ccco3)CC2)cc1", "Potency": "inconclusive: 29.1 µM [activator, single point]"}
{"smiles": "CCC(C)(C)NC(=O)CCCSc1nc2ccccc2[nH]1", "Potency": "inconclusive: 2.59 µM [falling, partial curve]"}
{"smiles": "N#Cc1ccc(C(=O)NCCCSc2ccccc2)cc1", "lipid storage change, negative = inhibition": "inconclusive: -12.6%"}
{"smiles": "CN1CCN(NC(=O)c2ccc(COc3ccccc3Br)o2)CC1", "lipid storage change, negative = inhibition": "inconclusive: 15.8%"}
{"smiles": "COc1ccc(OC)c(N/C=C/C(=C(C#N)C#N)N(C)C)c1", "lipid storage change, negative = inhibition": "inconclusive: 17.4%"}
{"smiles": "COc1ccc(N(Cc2cc3cc(OC)ccc3[nH]c2=O)S(C)(=O)=O)cc1", "lipid storage change, negative = inhibition": "inconclusive: 17.5%"}
{"smiles": "CCOc1cc(/C=N/NC(=O)c2cccnc2)ccc1OCc1ccc(C(=O)OC)o1", "lipid storage change, negative = inhibition": "inconclusive: 15.2%"}
{"smiles": "CCCCC(=O)Nc1ccc(NC(=S)NC(=O)CCCCl)cc1OC", "Potency": "inconclusive: 29.1 µM [activator, single point]"}
{"smiles": "CCCSc1nc2sc3c(c2c(=O)[nH]1)CC(C)CC3", "note": "(configuration not stated)", "lipid storage change, negative = inhibition": "inconclusive: 7.8%"}
{"smiles": "COc1ccc(C(C)=O)cc1CSc1nnc(Nc2ccccc2)s1", "Potency": "active: 2.31 µM"}
{"smiles": "COc1ccc(-n2cc(-c3ccccc3)[nH]c2=S)c(OC)c1", "lipid storage change, negative = inhibition": "inconclusive: 4.86%"}
{"smiles": "CCC1(C)CC(c2csc(N)n2)CCO1", "note": "(configuration not stated)", "lipid storage change, negative = inhibition": "inconclusive: -1.33%"}
{"smiles": "O=C(NCC1CCCO1)C1CCC(N2C(=O)c3ccccc3C2=O)CC1", "note": "(configuration not stated)", "lipid storage change, negative = inhibition": "inconclusive: 22.1%"}
{"smiles": "C=CCn1c(SCC(=O)Nc2ccc3c(c2)OCCO3)nc2cc(C(=O)O)ccc2c1=O", "lipid storage change, negative = inhibition": "inconclusive: -1.2%"}
{"smiles": "O=C(NCCCN1CCOCC1)C1CCN(S(=O)(=O)c2cccc(Cl)c2Cl)CC1", "lipid storage change, negative = inhibition": "inconclusive: 26.9%"}
{"smiles": "CN(C(=O)CSc1nnc(-c2cccnc2)n1-c1ccccc1F)C1CCS(=O)(=O)C1", "note": "(configuration not stated)", "lipid storage change, negative = inhibition": "inconclusive: -29.1%"}
